The values that follow come from doi:10.1101/2021.10.07.463531.

Amino acid sequences for entries named in this document (tags omitted). A change or cut given only in a name is not applied to a line headed by its entry.
UniProt Q99MQ1: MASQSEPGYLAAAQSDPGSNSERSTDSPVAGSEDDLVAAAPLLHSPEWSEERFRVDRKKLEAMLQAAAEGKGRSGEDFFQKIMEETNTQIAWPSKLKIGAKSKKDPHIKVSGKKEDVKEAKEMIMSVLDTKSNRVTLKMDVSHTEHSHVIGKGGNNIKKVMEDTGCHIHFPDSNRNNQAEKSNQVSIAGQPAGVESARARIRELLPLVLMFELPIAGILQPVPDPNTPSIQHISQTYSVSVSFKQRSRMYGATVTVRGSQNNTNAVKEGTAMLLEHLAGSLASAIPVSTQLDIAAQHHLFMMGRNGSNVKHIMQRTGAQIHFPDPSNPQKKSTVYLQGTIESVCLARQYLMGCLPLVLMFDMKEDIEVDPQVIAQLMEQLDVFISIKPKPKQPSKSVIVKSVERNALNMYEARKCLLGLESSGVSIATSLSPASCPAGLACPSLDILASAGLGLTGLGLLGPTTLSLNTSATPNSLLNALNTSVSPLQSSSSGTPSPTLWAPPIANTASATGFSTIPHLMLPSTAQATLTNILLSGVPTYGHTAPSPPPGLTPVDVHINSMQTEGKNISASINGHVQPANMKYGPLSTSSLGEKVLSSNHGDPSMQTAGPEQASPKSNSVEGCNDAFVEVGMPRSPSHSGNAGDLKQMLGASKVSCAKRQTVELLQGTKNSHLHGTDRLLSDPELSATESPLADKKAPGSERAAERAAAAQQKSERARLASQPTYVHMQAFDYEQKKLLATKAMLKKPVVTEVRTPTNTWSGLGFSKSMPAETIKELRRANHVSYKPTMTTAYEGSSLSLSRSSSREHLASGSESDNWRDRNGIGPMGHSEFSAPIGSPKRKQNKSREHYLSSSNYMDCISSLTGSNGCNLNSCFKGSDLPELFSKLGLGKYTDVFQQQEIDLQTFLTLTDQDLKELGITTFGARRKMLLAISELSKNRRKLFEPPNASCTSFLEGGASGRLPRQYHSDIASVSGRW

These are yes or no findings as the source states them, for the method shown. In cells and extracts the contact can be indirect. A result given as binding can be weak or reduced; the word gives no strength. Sequences can lack the tags named with a protein.

In the test the target is GST-Bicc1-KH (GST fusion of the entire KH tandem repeat of Bicc1) (UniProt Q99MQ1). The test is described as follows: pull-down.

B1: v5-ANKS6 (protein, UniProt Q68DC2 1-871)
chain: MGEGGLPPAFQLLLRACDQGDTETARRLLEPGAAEPAERGAEPEAGAEPAGAEVAGPGAAAAGAVGAPVPVDCSDEAGNTALQFAAAGGHEPLVRFLLRRGASVNSRNHYGWSALMQAARFGHVSVAHLLLDHGADVNAQNRLGASVLTVASRGGHLGVVKLLLEAGAFVDHHHPSGEQLGLGGSRDEPLDITALMAAIQHGHEAVVRLLMEWGADPNHAARTVGWSPLMLAALTGRLGVAQQLVEKGANPDHLSVLEKTAFEVALDCKHRDLVDYLDPLTTVRPKTDEEKRRPDIFHALKMGNFQLVKEIADEDPSHVNLVNGDGATPLMLAAVTGQLALVQLLVERHADVDKQDSVHGWTALMQATYHGNKEIVKYLLNQGADVTLRAKNGYTAFDLVMLLNDPDTELVRLLASVCMQVNKDKGRPSHQPPLPHSKVRQPWSIPVLPDDKGGLKSWWNRMSNRFRKLKLMQTLPRGLSSNQPLPFSDEPEPALDSTMRAAPQDKTSRSALPDAAPVTKDNGPGSTRGEKEDTLLTTMLRNGAPLTRLPSDKLKAVIPPFLPPSSFELWSSDRSRTRHNGKADPMKTALPQRASRGHPVGGGGTDTTPVRPVKFPSLPRSPASSANSGNFNHSPHSSGGSSGVGVSRHGGELLNRSGGSIDNVLSQIAAQRKKAAGLLEQKPSHRSSPVGPAPGSSPSELPASPAGGSAPVGKKLETSKRPPSGTSTTSKSTSPTLTPSPSPKGHTAESSVSSSSSHRQSKSSGGSSSGTITDEDELTGILKKLSLEKYQPIFEEQEVDMEAFLTLTDGDLKELGIKTDGSRQQILAAISELNAGKGRERQILQETIHNFHSSFESSASNTRAPGNSPCA
Consider B1, for which the binding result was “binds”.
